Some of the results follow.

Amino acid sequences for entries named in this document (tags omitted).
UniProt Q0JBA9, entry or part of it: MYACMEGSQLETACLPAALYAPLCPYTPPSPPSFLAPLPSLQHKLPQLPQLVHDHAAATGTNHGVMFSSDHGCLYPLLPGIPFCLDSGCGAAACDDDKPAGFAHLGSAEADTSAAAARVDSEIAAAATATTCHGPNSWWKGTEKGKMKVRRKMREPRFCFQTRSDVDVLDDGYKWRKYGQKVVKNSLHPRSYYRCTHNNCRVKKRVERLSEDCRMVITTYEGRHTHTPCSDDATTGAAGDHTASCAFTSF

The assay has as its target OsWRKY34 (Oryza sativa, UniProt Q0JBA9 1-250). As to the kind of experiment: protein-binding microarray (RPBM); PBS, 2% BSA, 51.3 ng/ul salmon testes DNA, 50 uM zinc acetate, 200 nM TF, 25 C, 1 h; high values mean tight binding. As to conditions: protein: recombinant; tags: N-terminal polyhistidine and DsRed monomer fusion (pET32a); label: CyDye5-dUTP incorporated in the synthesized complementary strand; 3' TTTTT single-stranded linker to array surface; dsDNA, one strand shown. In short, it runs like this:
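Using Ni–NTA, transcription factors fused N-terminally to polyhistidine and DsRed were purified after expression in E. coli BL21-CodonPlus. These were incubated at 200 nM with a blocked, double-stranded custom Agilent array for 1 h at 25 °C in a buffer containing 50 µM zinc acetate, and the array was washed. The binding signal is per-feature fluorescence intensity (arbitrary units) on an Axon 4000B scanner.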
Consider “AAACTAACTCACCTTGTGAATCGTTGTGGACTCTTTGTTGCGGAGTCACCTAGTGCAG”, for which the binding signal is 8070 fluorescence intensity (a.u.).

As for “GAATCTAGATGCTGTTCCATCTCCAAATGTTCAAACCCTCCGGAGTCACCTAGTGCAG”, the binding signal is 8360 fluorescence intensity (a.u.).

Turning to “AAATATTGAACCCTGCCTGTTTGTGACTTTTCAAATTTTTCGGAGTCACCTAGTGCAG”, the binding signal was 8520 fluorescence intensity (a.u.).

For the sequence “TGCTGCACGCCGCCGCCGAGTAGTCGTCGTCACCATTGTTCGGAGTCACCTAGTGCAG”, the binding signal was 8530 fluorescence intensity (a.u.).

Regarding “TCATCTTTGCCAATTCCATCTTTCTTCTGTTCTCCTTTCCCGGAGTCACCTAGTGCAG”, the binding signal was 9700 fluorescence intensity (a.u.).

In the case of “CCGCGATAGTTCATGTGGGTAATTCGTACTTTTTCCTATACGGAGTCACCTAGTGCAG”, the binding signal was 11700 fluorescence intensity (a.u.).

Consider “AGTGCTTGTGTAGTTGTGTCGCGTGTGTGTCTGAGAGAGACGGAGTCACCTAGTGCAG”, for which the binding signal was 16000 fluorescence intensity (a.u.).

Turning to “TTCCACTGATTCCACCAATTCTGCCGCTGTTGGATCTCCACGGAGTCACCTAGTGCAG”, the binding signal was 9860 fluorescence intensity (a.u.).

On to “ACACACGCACACACTTATCAGTTCTCACCCAAGCCTACCCCGGAGTCACCTAGTGCAG”, for which the binding signal was 9770 fluorescence intensity (a.u.).

As for “TCTCTCTGGTGTGGGGCCCCACTCTTTATATCATCACCACCGGAGTCACCTAGTGCAG”, the binding signal was 10700 fluorescence intensity (a.u.).

Consider “CGTTTTCCCGCCACCACCACGCAATCTCAGCCGTCCGATCCGGAGTCACCTAGTGCAG”, for which the binding signal was 9130 fluorescence intensity (a.u.).

As for “CTCTCTCTCTCTCTCTCTCTCGCCGCCTCAAACTTTGATTCGGAGTCACCTAGTGCAG”, the binding signal was 10700 fluorescence intensity (a.u.).

Take “CTTTTTTTAGTCGTCTTGGTTCAGTTTCCTGGTTGCTTCTCGGAGTCACCTAGTGCAG”: the binding signal was 13700 fluorescence intensity (a.u.).

Regarding “TCCACCCAACATCTTTTTTCTCAGCCGTCGTCTCATCTCGCGGAGTCACCTAGTGCAG”, the binding signal was 13200 fluorescence intensity (a.u.).

For “CCAGATTCATAGCAGATATGTGATGTCCCATACTTTTTTTCGGAGTCACCTAGTGCAG”, the binding signal is 8380 fluorescence intensity (a.u.).

Take “TACTAATGTTATTACACGTATTGCCATTTGATTTATTGTTCGGAGTCACCTAGTGCAG”: the binding signal was 9920 fluorescence intensity (a.u.).

Turning to “CCTTTATGATCTTGCGTTATCGAGCACCTTGTTTGGTCTTCGGAGTCACCTAGTGCAG”, the binding signal is 10200 fluorescence intensity (a.u.).

On to “CTCCACACACCCCGCCACATCCGCCTCTGCGCGACTGCGCCGGAGTCACCTAGTGCAG”, for which the binding signal was 8500 fluorescence intensity (a.u.).

As to “TTTATGGTGATCTTCTGCAAACGACTTTTGAATATATATACGGAGTCACCTAGTGCAG”, the binding signal was 9180 fluorescence intensity (a.u.).

As to “TAAACCATCTACATCTCCATTCCTTTTCTTTTATTGGATACGGAGTCACCTAGTGCAG”, the binding signal is 8600 fluorescence intensity (a.u.).

For “TTTTTGACAGCCCTACGTGGGTGTGGGTATGGGGCAAGGGCGGAGTCACCTAGTGCAG”, the binding signal was 9120 fluorescence intensity (a.u.).

Consider “GGAGGAGGAGCACGATGGGGTCGCGTGTGGAGGGGAGGAGCGGAGTCACCTAGTGCAG”, for which the binding signal is 9090 fluorescence intensity (a.u.).

As to “CAATGCCATATGGACGTGACGTGTCCTTTTCTTTTTTTTCCGGAGTCACCTAGTGCAG”, the binding signal is 9640 fluorescence intensity (a.u.).

“GATAACCGCATCTTTTGGTGAACCTTTGTAACTACTACCTCGGAGTCACCTAGTGCAG”: the binding signal is 9670 fluorescence intensity (a.u.).

“CGCTGCGCTGCCGGTCCATTTCTAGAAGCCCTCGCGCTCCCGGAGTCACCTAGTGCAG”: the binding signal is 9130 fluorescence intensity (a.u.).

For the sequence “CTTGCTTCGCGAACGCCACATCCACTGCACTTCATACCTTCGGAGTCACCTAGTGCAG”, the binding signal is 12700 fluorescence intensity (a.u.).

For the sequence “ACATGGTTGCTTCACTTTTTTCTTACATGGTTCATTACATCGGAGTCACCTAGTGCAG”, the binding signal was 13800 fluorescence intensity (a.u.).

As for “CCGCTGGTCCACGTTCTCGCTCGACTCAGTCGCCACCTCCCGGAGTCACCTAGTGCAG”, the binding signal was 9140 fluorescence intensity (a.u.).

Turning to “GACAACAATTATACCCTAATGCCCCTTGTTTTTGTGTGACCGGAGTCACCTAGTGCAG”, the binding signal is 8080 fluorescence intensity (a.u.).

As to “CGGCACGGTGCTGCAGGGGAGGTACGAGATGGGGCGGGTGCGGAGTCACCTAGTGCAG”, the binding signal is 11200 fluorescence intensity (a.u.).

Regarding “ATGCATACCCAGAACTCACCTCTCATCTCCTCGACCCTATCGGAGTCACCTAGTGCAG”, the binding signal was 8350 fluorescence intensity (a.u.).

On to “TCGCCCCTTCTTCTCTTCTCCTCCCCTTTCTTCTTTTTTTCGGAGTCACCTAGTGCAG”, for which the binding signal is 8120 fluorescence intensity (a.u.).

In the case of “TCACCGCGCGCTCCAGCTCCGCCGCCTCCACGAAGTTGTCCGGAGTCACCTAGTGCAG”, the binding signal was 8470 fluorescence intensity (a.u.).

In the case of “CCCGTCGTCCCTACCAGCTGCCACCGCCGCCCTGTCCTCCCGGAGTCACCTAGTGCAG”, the binding signal is 8180 fluorescence intensity (a.u.).

For “TCCCTTAACTCGGTTCCCCTTCGCTTCGTTGACCCCTTGCCGGAGTCACCTAGTGCAG”, the binding signal was 11200 fluorescence intensity (a.u.).

Turning to “GGTGGTGTGGTGGGGTGGGGACTACCACCATTAATGCAAACGGAGTCACCTAGTGCAG”, the binding signal was 12500 fluorescence intensity (a.u.).

“CGCTTATTCTCAACTCCTCGCATCTCTCTTCCTCTACATCCGGAGTCACCTAGTGCAG”: the binding signal was 8920 fluorescence intensity (a.u.).

Regarding “TTTTGCTCTCACGATCCATATGCGTACTTATCTGCATGCCCGGAGTCACCTAGTGCAG”, the binding signal was 12000 fluorescence intensity (a.u.).

On to “TTCCTCCCGCTCATCAGCCACATCGACATCATCCACTGCCCGGAGTCACCTAGTGCAG”, for which the binding signal was 10300 fluorescence intensity (a.u.).

Turning to “GAGCTCTCGACACCTCGCCGGAAACCACCACCCACCAAAACGGAGTCACCTAGTGCAG”, the binding signal was 9840 fluorescence intensity (a.u.).

For “GGGCCCCACTCCACTTGTCACCCCACCCACACGGCCACACCGGAGTCACCTAGTGCAG”, the binding signal is 11500 fluorescence intensity (a.u.).

With “AGCTTCAGCTGCCCGCTTTCTCTCCACCTAACGGCAGGCTCGGAGTCACCTAGTGCAG”, the binding signal is 8240 fluorescence intensity (a.u.).
